Source: ChEMBL document CHEMBL3988442, “University of Dundee, Small-Polar-MMV Screening Library” (2021).

Protein sequences, listed by entry. Tags and fused reporters are not part of them.
UniProt E9BF75, entry or part of it: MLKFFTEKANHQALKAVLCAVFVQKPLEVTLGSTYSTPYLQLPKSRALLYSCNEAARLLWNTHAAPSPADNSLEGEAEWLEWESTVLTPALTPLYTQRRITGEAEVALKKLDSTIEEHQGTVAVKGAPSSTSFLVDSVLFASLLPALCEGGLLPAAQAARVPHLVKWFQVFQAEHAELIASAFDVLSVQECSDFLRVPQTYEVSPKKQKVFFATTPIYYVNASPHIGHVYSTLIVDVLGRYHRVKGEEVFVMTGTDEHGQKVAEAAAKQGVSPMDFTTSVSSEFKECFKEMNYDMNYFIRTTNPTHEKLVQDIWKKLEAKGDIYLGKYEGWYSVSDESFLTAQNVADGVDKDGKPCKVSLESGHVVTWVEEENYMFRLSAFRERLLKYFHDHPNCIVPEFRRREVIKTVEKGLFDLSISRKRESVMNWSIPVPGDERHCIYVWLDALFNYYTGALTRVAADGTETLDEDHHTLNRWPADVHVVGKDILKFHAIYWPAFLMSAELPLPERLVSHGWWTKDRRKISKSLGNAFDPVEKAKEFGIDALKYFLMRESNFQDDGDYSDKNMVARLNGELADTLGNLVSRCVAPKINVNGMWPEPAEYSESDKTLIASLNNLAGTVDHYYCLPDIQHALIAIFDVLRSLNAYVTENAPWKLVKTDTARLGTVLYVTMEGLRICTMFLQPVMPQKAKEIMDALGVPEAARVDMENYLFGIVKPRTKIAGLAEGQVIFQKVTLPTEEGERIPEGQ

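Primary screen of methionyl-tRNA synthetase; the read-out is not stated. Target: Methionyl-tRNA synthetase (putative), Leishmania donovani (UniProt E9BF75). The test concentration is not given. Values are per cent inhibition. Size under these conditions: about 68,000 compounds, about 24 of them at 50% or above in at least one test.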

Results are percentages, as filed.
The record does not define 0% and 100%; most values in the screen are far below 50% and negative numbers occur (in some assays of this library far below -100).
The compounds are a random part of those screened.

structure	inhibition
O=C(CSC1CCc2ccccc2NC1=O)NCCc1ccc(O)cc1 (centres undefined)	16.82
COCCN(C)C[C@@H]1CN(C(=O)c2cccc(C(F)(F)F)c2)C[C@@H]1CO	17.03
c1cncc(CN2CCC3(COCCN(C4CCOCC4)C3)C2)c1 (centres undefined)	10.46
O=C(Nc1cnc(Oc2ccccc2)nc1)C1CC1	11.51
COc1ccccc1OC1CCN(Cc2cccnc2)CC1	13.15
COc1ccccc1CC1CCCN(CC(N)=O)C1 (centres undefined)	15.97
CN(C)C(C(=O)N1CCSCC1)c1ccccc1F (centres undefined)	16.1
Cc1nc2cc(OCc3nc(C(=O)NC(C)(CO)CO)co3)ccc2s1	6.689
CCC1CCCCN1C(=O)Cn1nc(-c2ccc(C)o2)cc(N)c1=O (centres undefined)	10.31
CC(=O)N1[C@@H](C(=O)NCC2CC2)C[C@@H]2CN(Cc3nccs3)C[C@@H]21	11.86
O=C(Cn1cc(NC(=O)c2ccc(F)cc2F)cn1)NC1CCCC1	16.31
Cc1ccc(CNc2nc(O)cc(C3CC(=O)N(C)C3)n2)cc1 (centres undefined)	13.02
CCn1ccnc1CN1CCC(N(Cc2ncc(C)o2)C(C)=O)C1 (centres undefined)	12.93
CCSCCC(C)N(C)C(=O)c1ccc2nncn2c1 (centres undefined)	0.2545
CC(NC(=O)NCCCc1n[nH]c(N)c1C#N)c1cccs1 (centres undefined)	6.103
CCOCc1ccc(CNC2=NCCCN2)cc1	7.436
COC(C)(C)CC(C)NCc1nncn1C1CCCCC1 (centres undefined)	13.11
CC(C)N(C)C(=O)C1=NOC2(CCN(C(=O)NCc3cccnc3)C2)C1 (centres undefined)	12.59
O=C(Cc1csc(-c2ncccn2)n1)N1CCN2CCCCC2C1 (centres undefined)	10.29
CN(C)S(=O)(=O)NCc1nc(-c2cccc(F)c2)c(-c2ccccn2)[nH]1	2.799
CC(Nc1cccc2c1OCCO2)C(=O)Nc1ccc(S(N)(=O)=O)cc1 (centres undefined)	6.789
CC(C)Nc1ncccc1C(=O)NCc1cnc(N(C)C)n1C	8.333
CNC(=O)[C@H]1CO[C@H]2CCN(Cc3ccc4ccccc4n3)C[C@H]2C1	18.52
CN1CCC2(CC1)CN(C(=O)c1cnccn1)Cc1ccccc12	1.333
Cc1ccnc(NC(=O)C2CCCO2)c1 (centres undefined)	4.416
CCc1nnc(Nc2cccc(C3CCN(C)CC3)n2)s1	-7.12
CC(C)(C)c1cc(=O)[nH]c(-c2ccccc2CN2CCCCCC2)n1	11.17
Cc1cc(C)cc(C(=O)N2CCCC3(CCCC(=O)N3C)C2)c1 (centres undefined)	8.654
O=C(C1CCCCN1Cc1nccn1CC(F)(F)F)N1CCCC1 (centres undefined)	12.99
CCn1cnnc1C1CCCN(C(=O)COc2ccc(Cl)cc2)C1 (centres undefined)	10.97
COc1ncccc1CNC(=O)N1CCC(CNC(C)=O)CC1	7.343
Cc1ccsc1CNC(=O)CSc1nnc[nH]1	-4.57
CCc1ccc(C(=O)Nc2cc(N3CCNC3=O)ccc2Cl)o1	9.041
CC(C)C(=O)N1CCOC2(COCCN(c3ncccn3)C2)C1 (centres undefined)	9.341
CN(Cc1cnn(-c2ccccc2)n1)C1CCCN(c2cccnn2)C1 (centres undefined)	16.26
Cc1ncsc1C(=O)N(Cc1ccccc1)C1CC1	19.7
O=c1[nH]c(NC2CCCC2)nc2nccc(-c3ccco3)c12	5.882
CC(C)NC(=O)NC[C@H]1OC[C@@H](NCc2ccccc2O)[C@@H]1O	9.446
CCNC(=O)[C@@H]1C[C@H](N)CN1C(=O)CCc1ccccc1Cl	6.704
NC(=O)c1cccc(CNC(=O)NCCOc2ccc(F)c(F)c2)c1	2.174
O=C(CCC1CCCC1)N1CCC(O)(C(F)(F)F)C1 (centres undefined)	9.023
COc1ccc(Oc2ncccc2NC(=O)N2CCOCC2)cc1	12.73
CCOc1ccccc1C(C(=O)O)N(C)CC1CCOCC1 (centres undefined)	5
CC1CCN(C)c2ccccc2N1C(=O)c1ccc(=O)n(C)c1 (centres undefined)	19.37
CCc1cccnc1NCc1cnc(N2CCOCC2)nc1	8.757
O=C(N1CCOCC1)[C@@]12CCO[C@@H]1CCN(Cc1cccc(F)c1)C2	9.29
CC(C(=O)N1CCCCC1)n1nc(-c2cccs2)cc(N)c1=O (centres undefined)	-2.857
CCN(CC)Cc1ccc(C(=O)N2CCCCC2Cn2cccn2)o1 (centres undefined)	5.397
COCCN1CCC(CNC(=O)C2(c3ccccc3)CCOCC2)C1 (centres undefined)	17.04
Cc1ccc(-n2nnc(C(=O)NCC3(CO)CC3)c2C2CC2)cc1	11.45
CCSc1ccc(NC(=O)NC(C)c2ccncc2)cn1 (centres undefined)	4.61
COCCCN1CCCN(C(C)c2nc(C3CC3)no2)CC1 (centres undefined)	4.127
Cc1cccc(CN(Cc2ccc(C)o2)C2CC(C)(C)NC(C)(C)C2)n1	15.41
O=C(CCc1cccc(F)c1F)N1CCN(Cc2ccco2)CC1	3.261
Cc1cc(NCc2cc3n(n2)CCCN(S(C)(=O)=O)C3)ncn1	13.33
CCN(C(C)=O)c1nc(CN2CCCC2Cn2cncn2)cs1 (centres undefined)	18.52
CC(NC(=O)NC1CCN(Cc2ccncc2)CC1)c1ccccc1F (centres undefined)	11.85
CCCn1nc2c(cc1=O)CN(Cc1nc(CCOC)no1)CC2	7.619
COc1cc(CNC(C)Cn2cccn2)cc(OC)c1OC (centres undefined)	6.883
O=C(NCCN1CCCCC1)c1ccn(-c2ccc(F)cc2)n1	14.42
COc1c(Br)cc(Cl)cc1NCc1c(C)noc1C	0.2584
CC(C)NC(=O)C[C@H]1[C@H]2CN(C(=O)Cc3ccccn3)C[C@@H]12	10.22
CC(C(=O)O)N1CC2(CCC1=O)CCN(CCSc1ccccc1)CC2 (centres undefined)	6.863
Cc1nn(C)c(N(C)C)c1CNCc1cccc(Br)c1	13.52
CN(Cc1ccccc1F)Cc1cc2c(cc1Br)OCCO2	10.45
CCCn1cnnc1CN(C)C(=O)CCC(=O)Nc1cc(C)ccc1F	5.988
O=C1CSc2ccc(C(=O)N3CCCC(n4ccnc4)C3)cc2N1 (centres undefined)	2.799
COc1ccc(C)cc1CN(Cc1ncc(C)o1)C1CCN(C)C1 (centres undefined)	-1.381
Cc1ccc(C)c(NCc2nc3n(n2)CCCCC3)c1	9.065
CC(C)c1sc(Cl)nc1C(=O)N1CCN(Cc2ccccc2)CC1	9.632
CCN(Cc1c(C)nn(CC)c1C)S(=O)(=O)c1cnn(C)c1C	5.949
CC[C@H]1CN2CC[C@H]1C[C@@H]2CNC(=O)Nc1ccccc1	5.495
Cc1nnc(Nc2cccc(C3CCN(CCO)CC3)n2)s1	5.923
CCC(C#N)NC(=O)c1sccc1OC (centres undefined)	21.59
CCC1(O)CCCN(c2nc(C(C)(C)C)nc3c2cnn3C)C1 (centres undefined)	14.99
Cc1nc(C(NC(=O)C2CCCC2)c2ccccc2F)no1 (centres undefined)	17.96
Cc1cc(NC(=O)NCc2cccnc2OC(C)C)no1	7.669
Cc1nn(C)c(N(C)C)c1CNCc1ccccc1CN(C)C	0.6944
Cc1noc(C)c1CN(C)C(=O)CCOc1ccc(Cl)cc1	5.797
O=C(c1ccco1)N1CCC(n2nc(-c3cccs3)ccc2=O)CC1	12.5
CNC(=O)c1cc(NC(=O)NCC2CCS(=O)(=O)C2)ccc1OC (centres undefined)	2.941
CCc1cc(C(=O)NCC2CCN(Cc3cccc(C)n3)C2)on1 (centres undefined)	7.99
c1cnc(N2CCO[C@H]3CN(CC4CCCC4)C[C@H]32)cn1	15.06
Cc1ccccc1C(C)NC(=O)CN1CCN(Cc2cccs2)CC1 (centres undefined)	13.53
CNC(=O)C1(N2CCC[C@H]2C(=O)NC2CCOCC2)CCOCC1	15.93
Cc1cccn2c(=O)cc(CN3CCCC3Cn3cccn3)nc12 (centres undefined)	11.39
CS(=O)(=O)N1CCOCC2(CCN(C(=O)c3cnccn3)CC2)C1	2.5

The first 4 entries again:

- O=C(CSC1CCc2ccccc2NC1=O)NCCc1ccc(O)cc1 (centres undefined) : 16.82%
- COCCN(C)C[C@@H]1CN(C(=O)c2cccc(C(F)(F)F)c2)C[C@@H]1CO : 17.03%
- c1cncc(CN2CCC3(COCCN(C4CCOCC4)C3)C2)c1 (centres undefined) : 10.46%
- O=C(Nc1cnc(Oc2ccccc2)nc1)C1CC1 : 11.51%